From article doi:10.1101/2024.05.23.595484
No constants are given. Whether binding was seen depends on the method and setting. For part of these data: Binding seen in cells or lysates may run through a third protein. Some results given as binding are weak or reduced against the parent protein; the word gives no strength. For part of these data: Sequences can lack the tags named with a protein.

By UniProt entry, the sequences of proteins in these tests, tags left out. Residues count along the entry.
UniProt P06241, residues 82-143: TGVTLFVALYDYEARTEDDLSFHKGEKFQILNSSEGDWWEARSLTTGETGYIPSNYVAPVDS
UniProt P07947: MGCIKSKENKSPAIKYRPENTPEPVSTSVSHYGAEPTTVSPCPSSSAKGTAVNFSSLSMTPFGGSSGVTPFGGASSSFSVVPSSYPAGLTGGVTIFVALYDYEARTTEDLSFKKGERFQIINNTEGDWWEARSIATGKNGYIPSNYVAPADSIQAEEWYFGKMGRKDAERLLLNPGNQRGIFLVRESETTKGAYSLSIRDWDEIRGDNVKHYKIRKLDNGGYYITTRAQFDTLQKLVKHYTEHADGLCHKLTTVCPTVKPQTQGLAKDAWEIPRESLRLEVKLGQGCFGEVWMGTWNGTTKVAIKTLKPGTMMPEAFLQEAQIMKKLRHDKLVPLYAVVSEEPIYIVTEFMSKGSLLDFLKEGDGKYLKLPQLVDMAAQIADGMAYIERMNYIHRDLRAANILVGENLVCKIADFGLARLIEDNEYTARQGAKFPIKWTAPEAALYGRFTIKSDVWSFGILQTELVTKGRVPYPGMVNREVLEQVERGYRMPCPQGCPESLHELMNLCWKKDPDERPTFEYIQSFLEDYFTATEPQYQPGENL

Assays:
[1] = molecular target: epidermal growth factor receptor (human (endogenous in HEK293T)) (UniProt P00533); assay: co-IP
[2] = molecular target: T1, GST fusion of the PLCγ1 SH3 domain (UniProt P19174); assay: peptide or protein array
T1 sequence: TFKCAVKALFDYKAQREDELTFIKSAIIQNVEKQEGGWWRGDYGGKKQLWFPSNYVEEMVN

[3] = molecular target: GST fusion of the FYN SH3 domain (UniProt P06241); assay: peptide or protein array

Molecule | binding [1] | binding [2] | binding [3]
YES (from UniProt P07947 1-543) (enzyme) | binds |  | 
GGGGAAPQPHPPPAFSPAFDNL (biotinylated) [PRM-containing HER2 tail sequence peptide, microarray probe] |  | binds | binds
